First the molecules themselves.
B1: Brsk2 (protein, UniProt D3ZML2 1-735)
chain: MTSTGKDGGGAQHAQYVGPYRLEKTLGKGQTGLVKLGIHCVTCQKVAIKIVNREKLSESVLMKVEREIAILKLIEHPHVLKLHDVYENKKYLYLVLEHVSGGELFDYLVKKGRLTPKEARKFFRQIISALDFCHSHSICHRDLKPENLLLDERNNIRIADFGMASLQVGDSLLETSCGSPHYACPEVIRGEKYDGRKADVWSCGVILFALLVGALPFDDDNLRQLLEKVKRGVFHMPHFIPPDCQSLLRGMIEVDAARRLTLEHIQKHIWYIGGKNEPEPEQPIPRKVQIRSLPSLEDIDPDVLDSMHSLGCFRDRNKLLQDLLSEEENQEKMIYFLLLDRKERYPSHEDEDLPPRNEIDPPRKRVDSPMLNRHGKRRPERKSMEVLSVTDGGSPVPARRAIEMAQHGQRSRSISGASSGLSTSPLSSPRVTPHPSPRGSPLPTPKGTPVHTPKESPAGTPNPTPPSSPSVGGVPWRTRLNSIKNSFLGSPRFHRRKLQVPTPEEMSNLTPESSPELGHLQLFGNPVSKVRSVAMELVILVQTLAYTSFRLLGTFLPVRYLRHSVLSRPPERARLVLRGAPCTHMGPVWNMVGMAYTQNPPIMGETGVYGSQWVMSSAPSKHYTSLGLSVPSPSCSLSPSLFPFCAPDTTNCMEVMTGRLSKCGTPLSNFFDVIKQLFSDEKNGQAAQAPSTPAKRSAHGPLGDSAAAGPGGDTEYPMGKDMAKMGPPAARREQP
B2: Acad9 (protein, UniProt B1WC61 42-625)
chain: SFAKELFLGHIQQKGVFPFPEVSQEELSEINQFVGPLEKFFNEEVDSRKIDQEGKIPADTLAKLKSLGLFGIQVPEEYGGLGLSNTMYARLGEIISMDASITVTLAAHQAIGLKGIILVGNEEQKAKYLPKLSSGEHIAAFCLTEPASGSDAASIQTRATLSEDKKYFVLNGSKVWITNGGLANIFTVFAKTEVVDSDGSIKDKMTAFIVERDFGGITNGKPEDKLGIRGSNTCEVHFENTRVPVENVLGEVGGGFKVAMNILNSGRFSMGSAVAGMLKKLIEQTAEYACTRKQFNRNLSEFGLIQEKFALMAQKAYVMESMAYLTSGMLDQPGFPDCSIEAAMVKVFSSEAAWQCVSEALQILGGSGYMKDYPYERMLRDARILLIFEGTNEILRLFIALTGLQHAGRILTSRIKELKSGNVTTVMETIGRKLRDSLGRTVDLGLSSNIAVVHPSLGDSANKLEENVHYFGRTVETLLLRFGKTIVEEQLVLKRVANILINLYGMTAVLSRASRSIRIGLKNHDHEILLANMFCVEAYFQNLFSLSQLDKYAPENLDEQIKKVSQQILEKRAYICAHPLDRAS
B3: Gpd2 (protein, UniProt P35571 43-727)
chain: ATCFSEPVNREPPSREAQLMTLQNTSEFDILVIGGGATGCGCALDAVTRGLKTALVERNDFASGTSSRSTKLIHGGVRYLQKAITNLDVEQYRMVKEALHERANLLEIAPHLSAPLPIMLPLYKWWQLPYYWVGIKMYDLVAGSHCLKSSYVLSKSRALEHFPMLQKDKLVGAIVYYDGQHNDARMNLAIALTAARYGAATANYMEVVSLLKKTDPETGKERVSGARCKDVLTGHEFNVRAKCVINATGPFTDSVRKMDDNDVVPICQPSAGVHIVMPGYYSPENMGLLDPATSDGRVIFFLPWEKMTIAGTTDSPTDVTHHPIPSEDDINFILNEVRNYLSCDVEVRRGDVLAAWSGIRPLVTDPKSANTQSISRNHVVEVSDSGLITIAGGKWTTYRSMAEDTVNKAVKLHNLNAGPSRTVGLFLQGGKDWSPTLYIRLVQDYGLESEVAQHLAKTYGDKAFDVAKMASVTGKRWPVVGVRLVSEFPYIEAEVKYGIKEYACTAVDMISRRTRLAFLNVQAAEEALPKIVELMGRELNWSELRKQEELETATRFLYYEMGYKSRTEQLTDSTEISLLPPDIDRYKKRFHMFDEDEKGFITIVDVQRVLESINVQMDEDTLHEILCEVDLNKNGQVELHEFLQLMSAVHTGRVSGSRLAILMKTAEENLDRRVPIPVDRSCGGL
B4: Vac14 (protein, UniProt Q80W92 1-783)
chain: MNPEKDFAPLTPNIVRALNDKLYEKRKVAALEIEKLVRDFVAQNNTVQIKHVIQTLSQEFALSQHPHSRKGGLIGLAACSIALGKDSGLYLKELIEPVLTCFNDADSRLRYYACEALYNIVKVARGAVLPHFNVLFDGLSKLAADPDPNVKSGSELLDRLLKDIVTESSKFDLVGFIPLLRERIYSNNQYARQFIISWILVLVSVPDINLLDYLPEILDGLFQILGDNGKEIRKMCEVVLGEFLKEIKKNPSSVKFAEMANILVIHCQTTDDLIQLTAMCWMREFIQLAGRVMLPYSSGILTAVLPCLAYDDRKKSIKEVANVCNQSLMKLVTPEDDEPDEPKSVAQKQTEPNPEDSLPKQEGTASGGASGPCDSSFGSGISVFTSASTDRAPVTLHLDGIVQVLNCHLSDTTIGMMTRIAVLKWLYHLYIKTPRKMFRHTDSLFPILLQTLSDESDEVVLKDLEVLAEIASSPAGQTDDPGAPDGPDLQVNHSELQVPTSGRANLLNPPNTKGLECSPSTPTMNSYFYKFMINLLQTFSSERKLLEARGPFIIRQLCLLLNAENIFHSMADILLREEDLKFASTMVHTLNTILLTSTELFQLRNQLKDLKTLESQNLFCCLYRSWCHNPVTTVSLCFLTQNYRHAYDLIQKFGDLEVTVDFLTEVDKLVQLIECPIFTYLRLQLLDVKNNPYLMKALYGLLMLLPQSSAFQLLSHRLQCVPNPELLQTEDCLKAAPKSQKGDSPSIDYTELLQHFEKVQKQHLEVRHQRSGRGDHLDRRVVL
B5: Slc25a13 (protein, UniProt F1LZW6 1-676)
chain: MAAAKVALTKRADPAELKAIFLKYASIEKNGEFFMSPHDFVTRYLNIFGESQPNPKTVELLSGVVDQTKDGLISFQEFVAFESVLCAPDALFMVAFQLFDKAGKGEVTFEDVRQVFGQTTIHQHIPFNWDSEFVQLHFGKERKRHLTYAEFTQFLLEIQLEHAKQAFVQRDNAKTGKVTAIDFRDIMVTIRPHVLTPFVEECLVAAAGGTRSHQVSFSYFNGFNSLLNNMELIRKIYSTLAGSRKDVEVTKEEFALAAQKFGQVTPMEVDILFQLADLYEPRGRMTLADIERIAPLEEGMLPFNLAEAQRQQKASGDAARPFLLQLAESAYRFGLGSIAGAVGATAVYPIDLVKTRMQNQRSTGSFVGELMYKNSFDCFKKVLRYEGFFGLYRGLLPQLLGVAPEKAIKLTVNDFVRDKFMHKDGSVPLLAEIFAGGCAGGSQVIFTNPLEIVKIRLQVAGEITTGPRVSALSVVRDLGFFGIYKGAKACFLRDIPFSAIYFPCYAHVKASFANEDGQVSPGSLLLAGAIAGMPAASLVTPADVIKTRLQVAARAGQTTYSGVTDCFRKILREEGPKALWKGAGARVFRSSPQFGVTLLTYELLQRWFYVDFGGVKPVGSELVPKSRITLPAPNPDHVGGYKLAVATFAGIENKFGLYLPLFKPSASTSKVTAVGS
B6: Trim3 (protein, UniProt O70277 1-744)
chain: MAKREDSPGPEVQPMDKQFLVCSICLDRYRCPKVLPCLHTFCERCLQNYIPPQSLTLSCPVCRQTSILPEQGVSALQNNFFISSLMEAMQQAPDGAHDPEDPHPLSAVAGRPLSCPNHEGKTMEFYCEACETAMCGECRAGEHREHGTVLLRDVVEQHKAALQRQLEAVRGRLPQLSAAIALVGGISQQLQERKAEALAQISAAFEDLEQALQQRKQALVSDLESICGAKQKVLQTQLDTLRQGQEHIGSSCSFAEQALRLGSAPEVLLVRKHMRERLAALAAQAFPERPHENAQLELVLEVDGLRRSVLNLGALLTTSAAAHETVATGEGLRQALVGQPASLTVTTKDKDGRLVRTGSAELCAEITGPDGMRLAVPVVDHKNGTYELVYTARTEGDLLLSVLLYGQPVRGSPFRVRALRPGDLPPSPDDVKRRVKSPGGPGSHVRQKAVRRPSSMYSTGGKRKDNPIVDELVFRVGSRGREKGEFTNLHPLSAASSGRIVVADSNNQCIQVFSNEGQFKFRFGVRGRSPGQLQRPTGVAVDTNGDIIVADYDNRWVSIFSPEGKFKTKIGAGRLMGPKGVAVDRNGHIIVVDNKSCCVFTFQPNGKLVGRFGGRGATDRHFAGPHFVAVNNKNEIVVTDFHNHSVKVYSADGEFLFKFGSHGEGNGQFNAPTGVAVDSNGNIIVADWGNSRIQVFDSSGSFLSYINTSAEPLYGPQGLALTSDGHVVVADAGNHCFKAYRYLQ
B7: Pnpla8 (protein, UniProt D3ZRC4 1-776)
chain: MSINLTLDIYIYFLNNARSFCGKQRSKQLNFLCSKQYWRMNHVNVHREFHTSKKSCKWNRSEAHCSKHWHSSSNHGVHIGIVKLSTSAPKGLTKVSIHMSRIKSTLNSVSKAIFGSQNEMVSRLAQFKPSSRIFRKVSDRGWLKHKNVKQAIESLKNYSDKSAEKNSFAEQKSYFADKEEGSDKHSLYHYAYRITTRFGESFYFLANHINSYFKNKEKMSQIKEDRQLQDKPCLEESKSISPSPDILTDRPDSGPPLNVEDKLSSSTQLPEALPVSTKQSIANFLSRPTEGVQALVGGYIGGLVPKLKSDPKSQPEEEEEPSKTDEPICKDKKAEEKKRVLLQREKIIARVSIDNRTRALVQALRRTTDPKLCITRVEELTFHLLEFPEGKGVAVKEKIIPYLLRLRQIKDETLQAAVREILALIGYVDPVKGRGIRILAIDGGGTRGVVALQTLRKLVELTQKPIHQLFDYICGVSTGAILAFMLGLFHMPLDECEELYRKLGSDVFTQNVIVGTVKMSWSHAFYDSHTWEKILKDKVGSALMIETARDPLCPKVAAVSTIVNRGQTPKAFVFRNYGHFPGTNSHYLGGCQYKMWQAIRASSAAPGYFAEYALGNDLHQDGGLLLNNPSALALHECKCIWPDTPLECIVSLGTGRYESDVRNTTTYTSLKTKLSNVISSATDTEEVHIMLDGLLPADTYFRFNPVICENIPLDESRNEKLDQLQLEGMKYLERNDEKMKKLAKILSREKTTLQKISDWIKLKSDMYEGLPFFSKL
B8: Numb (protein, UniProt Q2LC84 1-652)
chain: MNKLRQSFRRKKDVYVPEASRPHQWQTDEEGVRTGKCSFPVKYLGHVEVDESRGMHICEDAVKRLKAERKFFKGFFGKTGKKAVKAVLWVSADGLRVVDEKTKDLIVDQTIEKVSFCAPDRNFDRAFSYICRDGTTRRWICHCFMAVKDTGERLSHAVGCAFAACLERKQKREKECGVTATFDASRTTFTREGSFRVTTATEQAEREEIMKQLQDAKKAETDKTVGPSVAPGNSAPSPSSPTSPTLDPTASLEMNNPHAIPRRHAPIEQLARQGSFRGFPALSQKMSPFKRQLSLRINELPSTMQRKTDFPIKNTVPEVEGEAESISSLCSQITSAFSTPCEDPFSSAPMTKPVTLVAPQSPVLQANGTDSALHVLTAKPASTALAPVAMPVRETNPWAHAPDAANKEIAAIHSGTEWGQSSGAASPGLFQAGHRRTPSEADRWLEEVSKSVRAQQPQASAAPLQPVLQPPPPAAIAPPAPPFQGHAFLTSQPVPVGVVPPLQPAFVSTQSYPVANGMPYPASNVPVVGITPSQMVANVFGTAGHPQATHPHQSPSLAKQQTFPQYETSSATTSPFFKPSAQHLNGSAAFNGVDNSGLVSGNRPAQVPPGTCPVDPFEAQWAALESKPKQRTNPSPTNPFSSDAQKAFEIEL

Chains of the proteins cited; added tags and fusions are not shown.
UniProt Q9NZV8: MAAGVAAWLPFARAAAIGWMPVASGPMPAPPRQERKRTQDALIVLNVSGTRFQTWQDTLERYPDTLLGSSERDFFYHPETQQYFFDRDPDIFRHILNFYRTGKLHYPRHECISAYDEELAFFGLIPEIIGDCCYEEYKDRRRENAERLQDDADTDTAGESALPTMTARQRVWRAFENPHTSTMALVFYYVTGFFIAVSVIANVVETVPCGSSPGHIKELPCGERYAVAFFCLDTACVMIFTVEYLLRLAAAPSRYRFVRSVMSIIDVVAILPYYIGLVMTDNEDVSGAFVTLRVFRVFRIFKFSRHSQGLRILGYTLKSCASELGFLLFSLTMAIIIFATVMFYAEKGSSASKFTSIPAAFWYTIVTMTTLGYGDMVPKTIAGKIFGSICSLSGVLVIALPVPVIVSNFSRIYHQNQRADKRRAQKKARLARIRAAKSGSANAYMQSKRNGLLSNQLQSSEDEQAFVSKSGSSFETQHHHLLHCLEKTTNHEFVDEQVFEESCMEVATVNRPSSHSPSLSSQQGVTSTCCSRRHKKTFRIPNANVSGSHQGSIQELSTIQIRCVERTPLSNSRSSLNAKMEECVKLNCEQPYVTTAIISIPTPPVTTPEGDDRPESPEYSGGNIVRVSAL

Results are given in words; binding and its absence hold for the method and conditions named. Binding seen in cells or lysates may run through a third protein. Here binding means that the protein was enriched with, or labelled near, the bait; the list need not be complete.

The experiment deals with TAP-Kv4.2 (human) (UniProt Q9NZV8). Put plainly: affinity purification with mass spectrometry; TAP-Kv4.2 expressed by lentivirus in rat hippocampal neurons, harvested at DIV14; weak lysis buffer of the kit (0.1% NP-40); streptavidin resin, then calmodulin resin; gel cut into high and low molecular weight fragments; no MS of the control sample.
As to B1, the binding result is recorded as “binds”.
As for B2, the entry is “binds”; as for B3, “binds”.
For B4 the value was “binds”; for B5, “binds”.
As for B6, the entry is “binds”; as for B7, “binds”; as for B8, “binds”.

Source of the values: paper PMC9788671.
